In PubChem BioAssay AID588590 (National Center for Advancing Translational Sciences (NCATS), 2011):
Hit rate of the full screen: of about 390,000 compounds, about 4,000 (1%) were called active. This list was built around the results that the source calls inconclusive (neither active nor inactive); the mix of calls is not that of the screen. The call rests on the fitted dose curve; in most records, active means well fitted inhibition curve with a large enough effect; inconclusive means small, poorly fitted or top-dose-only effect, or another doubt; inactive means no such curve, though single readings can be large or run the other way. Potencies of inconclusive entries are doubtful fits and often do not repeat.

Chains of the proteins cited; added tags and fusions are not shown. Lines headed by an entry give the natural chain unless they say otherwise; changes in a name come on top.
UniProt Q9UNA4: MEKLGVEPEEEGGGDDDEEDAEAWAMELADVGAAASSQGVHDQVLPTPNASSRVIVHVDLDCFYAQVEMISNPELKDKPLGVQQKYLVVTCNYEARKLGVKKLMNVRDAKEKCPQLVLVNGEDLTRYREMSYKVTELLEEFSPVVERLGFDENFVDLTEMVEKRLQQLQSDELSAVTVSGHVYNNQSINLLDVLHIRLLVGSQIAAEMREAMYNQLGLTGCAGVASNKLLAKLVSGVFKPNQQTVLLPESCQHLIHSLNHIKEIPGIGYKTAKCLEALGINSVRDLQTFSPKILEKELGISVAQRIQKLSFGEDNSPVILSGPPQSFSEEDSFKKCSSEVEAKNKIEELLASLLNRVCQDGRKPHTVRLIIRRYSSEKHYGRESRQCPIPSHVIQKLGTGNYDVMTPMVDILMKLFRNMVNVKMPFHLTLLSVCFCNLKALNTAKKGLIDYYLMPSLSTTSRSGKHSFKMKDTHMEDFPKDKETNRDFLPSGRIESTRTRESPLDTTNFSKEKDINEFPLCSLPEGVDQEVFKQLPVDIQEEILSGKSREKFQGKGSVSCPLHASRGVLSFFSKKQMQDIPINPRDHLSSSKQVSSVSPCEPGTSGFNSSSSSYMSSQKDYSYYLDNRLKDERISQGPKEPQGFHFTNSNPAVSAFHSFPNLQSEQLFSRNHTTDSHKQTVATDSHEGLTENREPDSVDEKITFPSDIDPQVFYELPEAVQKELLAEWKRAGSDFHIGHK

The molecules below were run against DNA polymerase iota (Homo sapiens) (UniProt Q9UNA4) (assay: qHTS for Inhibitors of Polymerase Iota). Details: Pol iota fluorescent replication assay, 10 min; series mostly up to 115 µM; activity, negative = inhibition: at the top concentration.
Summary of the method: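 Pol iota at 10 nM preincubated 15 min with compounds at room temperature; reaction started with fluorescent substrate, 50 nM final. Fluorescence read kinetically at 0 and 10 min; buffer-only wells as negative control.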
Potency means the concentration at half of the fitted maximal effect.

Potency, inconclusive:
CC1=Nc2ccc(C)cc2/C1=C/c1c(N)n2c(S(=O)(=O)C(C)C)nsc2nc1=O 31.6 µM [inhibitor, single point]
CCC(=O)N1CCN(c2ccc(NC(=O)c3ccc(Br)o3)cc2)CC1 22.4 µM [inhibitor, full curve]
O=C1Nc2ccc(Br)cc2/C1=C/C(=O)c1ccc2c(c1)OCO2 28.2 µM [inhibitor, partial curve, poor fit]
Cc1ccc(S(=O)(=O)N2CCCCC2)cc1NC(=O)CCNC(=O)c1ccccc1 89.1 µM [inhibitor, partial curve, poor fit]
CCOc1cccc(C2Oc3nc(SC)nnc3-c3ccccc3N2C(C)=O)c1OC (stereo not given) 89.1 µM [inhibitor, single point]
O=C(NCC(c1ccco1)N1CCCCC1)c1cc2c(s1)CCCC2 (stereo not given) 56.2 µM [inhibitor, partial curve, poor fit]
COc1ccc2c(c1)c(=O)c(C(=O)c1ccc(Cl)cc1)cn2CC(=O)Nc1ccc(F)cc1 39.8 µM [inhibitor, single point]
Nc1ncc(S(=O)(=O)N2CCN(c3ccccc3)CC2)cn1 70.8 µM [inhibitor, partial curve, poor fit]
COc1cc(/C=C/[N+](=O)[O-])ccc1OC(=O)c1cc2ccccc2oc1=O 14.1 µM [inhibitor, partial curve, poor fit]
COc1ccccc1CNS(=O)(=O)c1cc2c3c(c1)C(C)C(=O)N3CCC2 (stereo not given) 89.1 µM [inhibitor, single point]

activity, negative = inhibition, inactive:
O=C1CC(=O)N(Cc2cccs2)C(=O)N1 -4.41%
CN(C)c1ccc2c(O)cc(=O)n(C)c2c1 33.7%
CCN1c2ccccc2-c2nc(SCC(=O)Nc3cc(C)c(Cl)cc3OC)ncc2S1(=O)=O 14.6%
O=C(Nc1cccc(-c2nc3ccccc3s2)c1)c1cc(=O)c2ccccc2o1 34.1%
COc1ccc(NC(=O)CC(=O)Nc2ccc(OC)cc2OC)c(OC)c1 14.4%
CC(NC(=O)c1ccco1)c1nc(-c2ccccc2Cl)no1 (stereo not given) -0.228%
C/C(=N\NC(=O)c1cccc(N/N=C(\C)c2ccccc2)c1)c1ccccc1 105%
Cc1cc(=O)oc2cc(OCC(=O)OCC(=O)N3CCC(C)CC3)ccc12 10.5%
COCCn1nnnc1CN(Cc1cc2cc(OC)c(OC)cc2[nH]c1=O)C1CCCC1 11.1%
NC1=NN(c2c(Cl)cc(Cl)cc2Cl)C(=O)C1 7.45%

Not a retest: entries from further up.
activity, negative = inhibition, inactive:
COCCn1nnnc1CN(Cc1cc2cc(OC)c(OC)cc2[nH]c1=O)C1CCCC1 11.1%
NC1=NN(c2c(Cl)cc(Cl)cc2Cl)C(=O)C1 7.45%
